Our source for the binding values is publication doi:10.1101/671156.

Assay [1] concerns the target T1, GST-YxxQ (307-545), recombinant CoAA YxxQ repeats (human) (UniProt Q96PK6).
T1 sequence: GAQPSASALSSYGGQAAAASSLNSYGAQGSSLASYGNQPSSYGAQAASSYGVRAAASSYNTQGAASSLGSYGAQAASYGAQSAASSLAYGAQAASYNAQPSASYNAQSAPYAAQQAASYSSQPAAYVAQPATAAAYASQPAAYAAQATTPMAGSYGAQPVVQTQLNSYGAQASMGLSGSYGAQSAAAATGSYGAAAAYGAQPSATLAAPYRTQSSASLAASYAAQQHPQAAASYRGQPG
The assay is described as follows: pull-down.

Assay [2] addresses T2, CoAA (coactivator activator, gene symbol RBM14) (human (endogenous in HeLa)) (UniProt Q96PK6).
T2 sequence: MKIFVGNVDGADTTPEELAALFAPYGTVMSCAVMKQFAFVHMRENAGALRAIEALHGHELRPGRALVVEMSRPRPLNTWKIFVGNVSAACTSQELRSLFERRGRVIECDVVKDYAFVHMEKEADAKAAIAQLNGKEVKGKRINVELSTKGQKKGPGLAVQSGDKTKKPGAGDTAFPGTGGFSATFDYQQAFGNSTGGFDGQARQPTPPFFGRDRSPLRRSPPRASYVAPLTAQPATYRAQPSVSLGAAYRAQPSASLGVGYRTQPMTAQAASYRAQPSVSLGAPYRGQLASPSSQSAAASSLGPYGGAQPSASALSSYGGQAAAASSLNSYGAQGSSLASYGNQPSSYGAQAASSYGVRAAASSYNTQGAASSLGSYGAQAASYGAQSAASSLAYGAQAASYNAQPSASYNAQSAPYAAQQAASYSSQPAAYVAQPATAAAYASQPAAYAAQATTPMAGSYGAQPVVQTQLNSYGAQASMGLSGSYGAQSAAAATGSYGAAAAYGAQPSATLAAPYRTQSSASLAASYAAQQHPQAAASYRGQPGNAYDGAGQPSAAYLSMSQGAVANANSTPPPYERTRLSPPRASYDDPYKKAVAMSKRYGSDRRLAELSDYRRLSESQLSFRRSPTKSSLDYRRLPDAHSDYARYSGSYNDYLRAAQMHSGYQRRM
The assay is described as follows: co-IP.

For assay [3], the target named is T2, CoAA (coactivator activator, gene symbol RBM14) (human (endogenous in HeLa)). The assay is described as follows: co-IP. The source holds these as a separate data set.

Where two headings read alike, the source gives them in different places. Results are given in words; binding and its absence hold for the method and conditions named. Binding seen in cells or lysates may run through a third protein. Some entries that bind do so weakly or less than the wild type. For some of these results: Sequences can lack the tags named with a protein.

B1: hnRNP M1 (alternatively spliced isoform of hnRNP M) (protein, UniProt P52272-2 1-691)
chain: MAAGVEAAAEVAATEIKMEEESGAPGVPSGNGAPGPKGEGERPAQNEKRKEKNIKRGGNRFEPYANPTKRYRAFITNIPFDVKWQSLKDLVKEKVGEVTYVELLMDAEGKSRGCAVVEFKMEESMKKAAEVLNKHSLSGRPLKVKEDPDGEHARRAMQKAGRLGSTVFVANLDYKVGWKKLKEVFSMAGVVVRADILEDKDGKSRGIGTVTFEQSIEAVQAISMFNGQLLFDRPMHVKMDERALPKGDFFPPERPQQLPHGLGGIGMGLGPGGQPIDANHLNKGIGMGNIGPAGMGMEGIGFGINKMGGMEGPFGGGMENMGRFGSGMNMGRINEILSNALKRGEIIAKQGGGGGGGSVPGIERMGPGIDRLGGAGMERMGAGLGHGMDRVGSEIERMGLVMDRMGSVERMGSGIERMGPLGLDHMASSIERMGQTMERIGSGVERMGAGMGFGLERMAAPIDRVGQTIERMGSGVERMGPAIERMGLSMERMVPAGMGAGLERMGPVMDRMATGLERMGANNLERMGLERMGANSLERMGLERMGANSLERMGPAMGPALGAGIERMGLAMGGGGGASFDRAIEMERGNFGGSFAGSFGGAGGHAPGVARKACQIFVRNLPFDFTWKMLKDKFNECGHVLYADIKMENGKSKGCGVVKFESPEVAERACRMMNGMKLSGREIDVRIDRNA
For the molecule B1, the binding entry in assay [1] is “binds”.

B2: heterogeneous ribonucleoprotein hnRNP M (protein, UniProt P52272 1-730)
chain: MAAGVEAAAEVAATEIKMEEESGAPGVPSGNGAPGPKGEGERPAQNEKRKEKNIKRGGNRFEPYANPTKRYRAFITNIPFDVKWQSLKDLVKEKVGEVTYVELLMDAEGKSRGCAVVEFKMEESMKKAAEVLNKHSLSGRPLKVKEDPDGEHARRAMQKVMATTGGMGMGPGGPGMITIPPSILNNPNIPNEIIHALQAGRLGSTVFVANLDYKVGWKKLKEVFSMAGVVVRADILEDKDGKSRGIGTVTFEQSIEAVQAISMFNGQLLFDRPMHVKMDERALPKGDFFPPERPQQLPHGLGGIGMGLGPGGQPIDANHLNKGIGMGNIGPAGMGMEGIGFGINKMGGMEGPFGGGMENMGRFGSGMNMGRINEILSNALKRGEIIAKQGGGGGGGSVPGIERMGPGIDRLGGAGMERMGAGLGHGMDRVGSEIERMGLVMDRMGSVERMGSGIERMGPLGLDHMASSIERMGQTMERIGSGVERMGAGMGFGLERMAAPIDRVGQTIERMGSGVERMGPAIERMGLSMERMVPAGMGAGLERMGPVMDRMATGLERMGANNLERMGLERMGANSLERMGLERMGANSLERMGPAMGPALGAGIERMGLAMGGGGGASFDRAIEMERGNFGGSFAGSFGGAGGHAPGVARKACQIFVRNLPFDFTWKMLKDKFNECGHVLYADIKMENGKSKGCGVVKFESPEVAERACRMMNGMKLSGREIDVRIDRNA
As to B2, the binding entry in assay [2], in assay [3] and in assay [1] was “binds” each time.
